{"source": "the supplement of paper PMC8728848", "binders": {"B1": {"name": "PX14343C-bfa-541-26-541 (Bacteroides fragilis) (protein)", "chain": "KAPLDEIADDSFWSDETLVKYYVNDLYSEISVDGLQLQENRSDNSVSAQRDKYRASWFKFNYDMVSASDPQDDDVWEDYYVKVRKCNRFFERIGTSTIEESEKSRLTGEVHFLRAMFYFEMVKRYGGVILLDKVLTMEDNWEIPRSSEKECYDFILEDLKKATEMLPASYGSREKGRATKGAAYALKSRVELYDKRYEDVIKSCAEVYKLGYELVDGTTPEKYRSIWWTTNKDNKEIIFDVQYKSPDVYNNMMVCNMVTYINDKYGDRGWGGLGPTQELIDAFEMADGTPATQYSQAPADQVFDINTCGIYEGREPRFYANIVFHGSQIFFNADKGAVTVDRYLMDTPDKGDGSLTGYNVWKWIDYDNYNYPYAGAGSPDFSTNWIILRYAEIYLNDAEARLETGDVEGARKAVNMIRQRVGLPDLTESDPEKLRELIRKERRIEFAFEEQRFYDVRRWKIGPETQTTLHGVRFVSPTEFKVTKTDIRTWNDRLYLTPVPHDEIVRSSVLKQNLGY"}}, "test_in_all_cases": "glycan array binding signal (z-score within array); higher = stronger binding", "details_in_all_cases": "glycan notation: IUPAC condensed, linker removed", "key": {"[1]": {"biological_target": "Fuc(a1-3)GlcNAc", "method_in_brief": "(§1)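 The binding signal is a Z-score computed within each array and averaged over linkers. Arrays of the same protein sequence at different concentrations or buffers were also averaged together. Data originate from 3228 arrays in the Consortium for Functional Glycomics database, kept only where the protein sequence was available.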"}, "[2]": {"biological_target": "Fuc(a1-3)[Gal(b1-4)]Glc6S", "method_in_brief": "as §1"}, "[3]": {"biological_target": "Fuc(a1-3)[Gal(b1-4)]GlcNAc", "method_in_brief": "as §1"}, "[4]": {"biological_target": "Fuc(a1-3)[Gal(b1-4)]GlcNAc(b1-2)Man", "method_in_brief": "as §1"}, "[5]": {"biological_target": "Fuc(a1-3)[Gal(b1-4)]GlcNAc(b1-2)Man(a1-3)[Fuc(a1-3)[Gal(b1-4)]GlcNAc(b1-2)Man(a1-6)]Man(b1-4)GlcNAc(b1-4)GlcNAc", "method_in_brief": "as §1"}, "[6]": {"biological_target": "Fuc(a1-3)[Gal(b1-4)]GlcNAc(b1-2)Man(a1-3)[Fuc(a1-3)[Gal(b1-4)]GlcNAc(b1-2)Man(a1-6)]Man(b1-4)GlcNAc(b1-4)[Fuc(a1-6)]GlcNAc", "method_in_brief": "as §1"}, "[7]": {"biological_target": "Fuc(a1-3)[Gal(b1-4)]GlcNAc(b1-3)Gal(b1-3)[Fuc(a1-4)]GlcNAc", "method_in_brief": "as §1"}, "[8]": {"biological_target": "Fuc(a1-3)[Gal(b1-4)]GlcNAc(b1-3)Gal(b1-4)[Fuc(a1-3)]GlcNAc", "method_in_brief": "as §1"}, "[9]": {"biological_target": "Fuc(a1-3)[Gal(b1-4)]GlcNAc(b1-3)Gal(b1-4)[Fuc(a1-3)]GlcNAc(b1-3)Gal(b1-4)[Fuc(a1-3)]GlcNAc", "method_in_brief": "as §1"}, "[10]": {"biological_target": "Fuc(a1-3)[Gal(b1-4)]GlcNAc(b1-3)GalNAc", "method_in_brief": "as §1"}, "[11]": {"biological_target": "Fuc(a1-3)[Gal(b1-4)]GlcNAc(b1-6)GalNAc", "method_in_brief": "as §1"}, "[12]": {"biological_target": "Fuc(a1-3)[Gal(b1-4)]GlcNAc(b1-6)[Gal(b1-3)GlcNAc(b1-3)]Gal(b1-4)Glc", "method_in_brief": "as §1"}, "[13]": {"biological_target": "Fuc(a1-3)[Gal(b1-4)]GlcNAc6S", "method_in_brief": "as §1"}, "[14]": {"biological_target": "Fuc(a1-3)[Gal3S(b1-4)]Glc", "method_in_brief": "as §1"}, "[15]": {"biological_target": "Fuc(a1-3)[Gal3S(b1-4)]GlcNAc", "method_in_brief": "as §1"}, "[16]": {"biological_target": "Fuc(a1-3)[Gal3S(b1-4)]GlcNAc6S", "method_in_brief": "as §1"}, "[17]": {"biological_target": "Fuc(a1-3)[GalNAc(b1-4)]GlcNAc", "method_in_brief": "as §1"}, "[18]": {"biological_target": "Fuc(a1-3)[GalNAc(b1-4)]GlcNAc6S", "method_in_brief": "as §1"}, "[19]": {"biological_target": "Fuc(a1-4)GlcNAc", "method_in_brief": "as §1"}, "[20]": {"biological_target": "Fuc(b1-3)GlcNAc", "method_in_brief": "as §1"}, "[21]": {"biological_target": "Gal(a1-2)Gal", "method_in_brief": "as §1"}, "[22]": {"biological_target": "Gal(a1-3)Gal", "method_in_brief": "as §1"}, "[23]": {"biological_target": "Gal(a1-3)Gal(b1-3)GlcNAc", "method_in_brief": "as §1"}, "[24]": {"biological_target": "Gal(a1-3)Gal(b1-3)GlcNAc(b1-2)Man", "method_in_brief": "as §1"}, "[25]": {"biological_target": "Gal(a1-3)Gal(b1-3)GlcNAc(b1-2)Man(a1-3)[Gal(a1-3)Gal(b1-3)GlcNAc(b1-2)Man(a1-6)]Man(b1-4)GlcNAc(b1-4)GlcNAc", "method_in_brief": "as §1"}, "[26]": {"biological_target": "Gal(a1-3)Gal(b1-3)GlcNAc(b1-3)GalNAc", "method_in_brief": "as §1"}, "[27]": {"biological_target": "Gal(a1-3)Gal(b1-3)GlcNAc(b1-6)GalNAc", "method_in_brief": "as §1"}, "[28]": {"biological_target": "Gal(a1-3)Gal(b1-3)[Fuc(a1-4)]GlcNAc(b1-2)Man(a1-3)[Gal(a1-3)Gal(b1-3)[Fuc(a1-4)]GlcNAc(b1-2)Man(a1-6)]Man(b1-4)GlcNAc(b1-4)GlcNAc", "method_in_brief": "as §1"}, "[29]": {"biological_target": "Gal(a1-3)Gal(b1-4)Glc", "method_in_brief": "as §1"}, "[30]": {"biological_target": "Gal(a1-3)Gal(b1-4)GlcNAc", "method_in_brief": "as §1"}, "[31]": {"biological_target": "Gal(a1-3)Gal(b1-4)GlcNAc(b1-2)Man", "method_in_brief": "as §1"}, "[32]": {"biological_target": "Gal(a1-3)Gal(b1-4)GlcNAc(b1-2)Man(a1-3)[Gal(a1-3)Gal(b1-4)GlcNAc(b1-2)Man(a1-6)]Man(b1-4)GlcNAc(b1-4)GlcNAc", "method_in_brief": "as §1"}, "[33]": {"biological_target": "Gal(a1-3)Gal(b1-4)GlcNAc(b1-3)GalNAc", "method_in_brief": "as §1"}, "[34]": {"biological_target": "Gal(a1-3)Gal(b1-4)GlcNAc(b1-6)GalNAc", "method_in_brief": "as §1"}, "[35]": {"biological_target": "Gal(a1-3)Gal(b1-4)[Fuc(a1-3)]GlcNAc", "method_in_brief": "as §1"}, "[36]": {"biological_target": "Gal(a1-3)Gal(b1-4)[Fuc(a1-3)]GlcNAc(b1-2)Man(a1-3)[Gal(a1-3)Gal(b1-4)[Fuc(a1-3)]GlcNAc(b1-2)Man(a1-6)]Man(b1-4)GlcNAc(b1-4)GlcNAc", "method_in_brief": "as §1"}, "[37]": {"biological_target": "Gal(a1-3)GalNAc", "method_in_brief": "as §1"}}, "note": "The list shows a part of the results.", "data": [{"binder": "B1", "values": [{"measurement": "glycan array binding signal (z-score)", "setting": "[1]", "result": -0.322}, {"measurement": "glycan array binding signal (z-score)", "setting": "[2]", "result": 1.22}, {"measurement": "glycan array binding signal (z-score)", "setting": "[3]", "result": -0.203}, {"measurement": "glycan array binding signal (z-score)", "setting": "[4]", "result": -0.929}, {"measurement": "glycan array binding signal (z-score)", "setting": "[5]", "result": -0.236}, {"measurement": "glycan array binding signal (z-score)", "setting": "[6]", "result": 0.223}, {"measurement": "glycan array binding signal (z-score)", "setting": "[7]", "result": -0.573}, {"measurement": "glycan array binding signal (z-score)", "setting": "[8]", "result": 0.118}, {"measurement": "glycan array binding signal (z-score)", "setting": "[9]", "result": -0.455}, {"measurement": "glycan array binding signal (z-score)", "setting": "[10]", "result": 0.824}, {"measurement": "glycan array binding signal (z-score)", "setting": "[11]", "result": 0.956}, {"measurement": "glycan array binding signal (z-score)", "setting": "[12]", "result": -0.383}, {"measurement": "glycan array binding signal (z-score)", "setting": "[13]", "result": -0.902}, {"measurement": "glycan array binding signal (z-score)", "setting": "[14]", "result": -0.316}, {"measurement": "glycan array binding signal (z-score)", "setting": "[15]", "result": -0.706}, {"measurement": "glycan array binding signal (z-score)", "setting": "[16]", "result": -0.963}, {"measurement": "glycan array binding signal (z-score)", "setting": "[17]", "result": 0.848}, {"measurement": "glycan array binding signal (z-score)", "setting": "[18]", "result": 0.249}, {"measurement": "glycan array binding signal (z-score)", "setting": "[19]", "result": -0.619}, {"measurement": "glycan array binding signal (z-score)", "setting": "[20]", "result": -0.036}, {"measurement": "glycan array binding signal (z-score)", "setting": "[21]", "result": -0.474}, {"measurement": "glycan array binding signal (z-score)", "setting": "[22]", "result": -0.601}, {"measurement": "glycan array binding signal (z-score)", "setting": "[23]", "result": -0.044}, {"measurement": "glycan array binding signal (z-score)", "setting": "[24]", "result": -0.753}, {"measurement": "glycan array binding signal (z-score)", "setting": "[25]", "result": 0.172}, {"measurement": "glycan array binding signal (z-score)", "setting": "[26]", "result": -0.994}, {"measurement": "glycan array binding signal (z-score)", "setting": "[27]", "result": 0.308}, {"measurement": "glycan array binding signal (z-score)", "setting": "[28]", "result": 0.905}, {"measurement": "glycan array binding signal (z-score)", "setting": "[29]", "result": -0.559}, {"measurement": "glycan array binding signal (z-score)", "setting": "[30]", "result": 7.53}, {"measurement": "glycan array binding signal (z-score)", "setting": "[31]", "result": -1.04}, {"measurement": "glycan array binding signal (z-score)", "setting": "[32]", "result": 2.85}, {"measurement": "glycan array binding signal (z-score)", "setting": "[33]", "result": -0.369}, {"measurement": "glycan array binding signal (z-score)", "setting": "[34]", "result": -0.277}, {"measurement": "glycan array binding signal (z-score)", "setting": "[35]", "result": 0.78}, {"measurement": "glycan array binding signal (z-score)", "setting": "[36]", "result": 1.03}, {"measurement": "glycan array binding signal (z-score)", "setting": "[37]", "result": -0.042}]}]}
